PubChem BioAssay AID493014 (National Center for Advancing Translational Sciences (NCATS), 2011)
In all, about 340,000 compounds went through this assay and about 170 (0.05%) were called active. Inconclusive means that the source gave no clear call. Such entries were picked first, then a sample of the others. Calls follow the shape of the dose curve; as a rule, active = well fitted inhibition curve with a large enough effect in the signal ratio, with a control signal flat (not every such curve was filed as active); inconclusive = small, poorly fitted or top-dose-only effect, or effect the other way, or a change in a side signal; inactive = flat fitted curve, though single readings scatter; the % refers to the signal ratio. Where the call is inconclusive, the potency comes from a doubtful curve fit.
Potency is read from the fitted curve at half-maximal effect.

Test: qHTS Assay to Find Inhibitors of Chronic Active B-Cell Receptor Signaling;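 as to activity change, negative = inhibition: plate controls were basal doxycycline-induced cells for no effect and cells given 10 µM MG132 for full effect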
Details: ABC-DLBCL IkBa-CBG/CBR reporter, luminescence ratio (green luciferase fused to IkBa over red control in TMD8 lymphoma cells), 4 h; activity change, negative = inhibition: at 46.1 µM (top of the series)
How it was run: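 TMD8 human ABC-DLBCL cells with doxycycline-inducible IκBα–green luciferase fusion and unfused red luciferase, in 0.5% FBS medium; compounds up to 46 uM, 4 h at 37C. Green/red luminescence ratio, filter-overlap corrected, fitted to concentration-response curves.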
In the case of `Cc1cccc(NC(=O)c2cc3c(s2)-c2c(C)cccc2OC3)n1`, the Potency is reported as inconclusive: 0.0891 µM [falling, full curve, poor fit].
In the case of `CC(C(=O)Nc1ccc(Cl)cc1)N(C)Cc1cccs1` (centres undefined), the activity change, negative = inhibition is reported as inconclusive: 20%.
For `C=CCn1c(SCC(=O)N2CCCC2)nc2c([nH]c3ccccc32)c1=O`, the activity change, negative = inhibition was inconclusive: -11.7%.
In the case of `Cc1c(C(=O)N2CCOCC2)sc(NC(=O)c2ccc3c(c2)OCO3)c1C#N`, the activity change, negative = inhibition is reported as “inactive”.
For `N#Cc1c(-c2ccc(Cl)cc2)c2c([nH]c1=S)CCCC2`, the activity change, negative = inhibition was inconclusive: 1.47%.
For `CCCn1c(=O)c2c(nc3n2CCCN3CCc2ccc(OC)c(OC)c2)n(C)c1=O`, the activity change, negative = inhibition was inconclusive: 6.14%.
In the case of `N#CC1(NC(=O)COC(=O)c2cc([N+](=O)[O-])ccc2N2CCOCC2)CCCCC1`, the Potency is reported as inconclusive: 32.6 µM [falling, partial curve, poor fit].
With `CN(C)c1ccc(/C=N/NC(=O)CCC(=O)NCc2ccccc2)cc1` the activity change, negative = inhibition was “inactive”.
With `CC(/C=N/NC(=O)c1nn(C)c(C)c1Br)=C\c1ccccc1` the activity change, negative = inhibition was inconclusive: 4.38%.
With `Cc1noc(C)c1CSc1nc2ccccc2nc1NS(=O)(=O)c1ccc(Cl)cc1` the activity change, negative = inhibition was “inactive”.
For `O=C(COc1ccc(Br)cc1)Nc1ccncc1`, the activity change, negative = inhibition was inconclusive: 6.8%.
For `CCCCn1c(/N=C/c2c[nH]c3ccccc23)nc2ccccc21`, the activity change, negative = inhibition was “inactive”.
For `CCN(CC(=O)NCc1ccc(Cl)cc1)C(=O)c1cnc(Cl)c(Cl)c1`, the activity change, negative = inhibition was inconclusive: -2.25%.
With `CN(C)S(=O)(=O)c1ccc(NC(=O)COC(=O)C2COc3ccccc3O2)cc1` (centres undefined) the activity change, negative = inhibition was “inactive”.
In the case of `C=C[C@@H]1c2ccccc2N(S(=O)(=O)c2ccc(C)cc2)[C@H](c2ccccc2C(F)(F)F)C1(C#N)C#N`, the activity change, negative = inhibition is reported as “inactive”.
With `O=c1c2ccccc2nnn1CSc1nc2ccccc2c(=O)n1Cc1ccco1` the activity change, negative = inhibition was “inactive”.
For `C=CCn1c(SCC(=O)c2[nH]c(C)c(C(=O)OCC)c2C)nc2scc(-c3ccc(OC)cc3)c2c1=O`, the activity change, negative = inhibition was inconclusive: 2.81%.
In the case of `COCCNc1oc(/C=C/c2ccc(F)cc2)nc1S(=O)(=O)c1ccccc1`, the activity change, negative = inhibition is reported as “inactive”.
With `O=C1NC2(CCCc3ccccc32)C(=O)N1Cc1nnc(-c2ccccc2Br)o1` (centres undefined) the activity change, negative = inhibition was inconclusive: -0.161%.
In the case of `O=C(CSc1ccc(-c2ccccn2)nn1)NCc1ccc(F)cc1`, the activity change, negative = inhibition is reported as “inactive”.
With `CC1CCC/C(=N\NC(=O)COc2ccccc2Cl)C1` (centres undefined) the activity change, negative = inhibition was inconclusive: 3.19%.
For `Nc1nc(CCl)nc(Nc2ccc3ccccc3c2)n1`, the Potency was inconclusive: 35.5 µM [falling, single point].
With `CCCCNC(=O)CSc1nc2cc3c(cc2c(=O)n1CCCCCC(=O)NCc1ccc(OC)cc1)OCO3` the activity change, negative = inhibition was “inactive”.
For `CCOc1ccc(S(=O)(=O)N(C)c2ccc(OCC(=O)NCc3ccco3)cc2)cc1`, the activity change, negative = inhibition was inconclusive: 0.113%.
With `COc1ccc(OCCN(C)Cc2ccccc2)cc1` the activity change, negative = inhibition was inconclusive: 2.21%.
In the case of `CCOC(=O)c1nc(NCc2ccccc2C)c2ccccc2n1`, the activity change, negative = inhibition is reported as inconclusive: 10.5%.
In the case of `CS(=O)(=O)c1ccc(NC(=O)c2cccc(S(=O)(=O)N3CCN(Cc4ccccc4)CC3)c2)cc1`, the activity change, negative = inhibition is reported as inconclusive: -1.58%.
With `Cc1cc(C(=O)NCCC2=CCCCC2)c(C)o1` the activity change, negative = inhibition was inconclusive: -11.8%.
For `Fc1ccc(OCc2nnc(-c3ccccc3Br)o2)c(Cl)c1`, the activity change, negative = inhibition was inconclusive: 2.97%.
With `CC(C)CNC(=O)/C(C#N)=C1\N=C(NC(=O)c2ccco2)c2ccccc21` the Potency was inconclusive: 25.1 µM [falling, single point].
For `CC1CCCC(C)N1C(=O)c1cc(-c2cccs2)on1` (centres undefined), the activity change, negative = inhibition was inconclusive: 13%.
With `Cc1ccc([N+](=O)[O-])cc1NC1OC(CO)C(O)C1O` (centres undefined) the activity change, negative = inhibition was “inactive”.
With `CC(C)NC(=O)Nc1ccc(Br)cc1Cl` the activity change, negative = inhibition was inconclusive: 2.58%.
For `O=C(CN1CCN(C(=O)c2ccco2)CC1)Nc1c2c(nc3c1CCC3)CCCC2`, the activity change, negative = inhibition was “inactive”.
With `COc1ccc(/C=N/N=C/c2ccc(OC)c(OC)c2)cc1OC` the activity change, negative = inhibition was “inactive”.
With `CCCOc1ccc(C2NC(=S)NC(c3ccccc3)=C2C(=O)Nc2ccc(C)cc2)cc1OC` (centres undefined) the activity change, negative = inhibition was inconclusive: -29.5%.
For `Cc1c(C(=O)N2CCC2)oc2ccc(Br)cc12`, the activity change, negative = inhibition was inconclusive: -5.61%.
In the case of `O=C1CSC(=Nc2ccccc2[N+](=O)[O-])N1`, the activity change, negative = inhibition is reported as inconclusive: 9.32%.
In the case of `COc1ccc(/C=N/NC(=O)CNC(=O)COc2ccccc2)cc1`, the activity change, negative = inhibition is reported as inconclusive: 3.61%.
In the case of `CCN1C(=O)[C@@H]2Cc3c([nH]c4ccccc34)C(c3cc(OC)c(OC)c(OC)c3)N2C1=S` (some centres undefined), the activity change, negative = inhibition is reported as “inactive”.
For `NC(=O)CC(NC(=O)Cc1ccc(Br)cc1)c1ccc(NCC2CC2)c([N+](=O)[O-])c1` (centres undefined), the activity change, negative = inhibition was “inactive”.
With `CCCCOC(=O)Nc1cccc(C(C)=O)c1` the activity change, negative = inhibition was inconclusive: 3.27%.
With `CN1C(=O)CC(C(=O)Nc2ccccc2F)SC1=Nc1ccc2c(c1)OCO2` (centres undefined) the activity change, negative = inhibition was “inactive”.
For `N/C(Cc1ccc(Cl)cc1Cl)=N\OC(=O)c1ccccc1F`, the activity change, negative = inhibition was inconclusive: 9.57%.
With `COc1ccccc1C(c1nnnn1Cc1ccccc1)N1CCN(c2nc3ccccc3s2)CC1` (centres undefined) the activity change, negative = inhibition was “inactive”.
For `O=C(CNC(=O)OCc1ccccc1)Oc1cc2oc(=O)cc(-c3ccccc3)c2cc1Cl`, the Potency was inconclusive: 6.31 µM [rising, partial curve].
In the case of `C=CC[n+]1c(-c2ccc(OCC)cc2)csc1NNC(=O)Nc1ccccc1`, the activity change, negative = inhibition is reported as inconclusive: 18.5%.
For `O=c1oc2cc(O)ccc2cc1-c1ccccc1`, the Potency was inconclusive: 1 µM [rising, partial curve, poor fit].
With `CC1c2cc3c(cc2CCN1C(=O)c1cccc(F)c1)OCCCO3` (centres undefined) the activity change, negative = inhibition was inconclusive: -15.7%.
With `CC1(c2cccc(Br)c2)NC(=O)N(CC(=O)Nc2ccc(F)cc2)C1=O` (centres undefined) the activity change, negative = inhibition was inconclusive: -25.4%.
In the case of `Cc1ccc(NC(=O)CNCc2cccs2)c(Br)c1`, the activity change, negative = inhibition is reported as inconclusive: -0.919%.
In the case of `COc1cc2c(cc1OC)C(COc1ccc(F)cc1)N(C(=O)c1cccc(F)c1)CC2` (centres undefined), the activity change, negative = inhibition is reported as “inactive”.
In the case of `CCc1ccc(Nc2nnc(SCC(=O)NC(=O)CN3CCCC3=O)s2)cc1`, the Potency is reported as inconclusive: 23.1 µM [falling, partial curve].
For `CC(C)(C)Nc1scc(-c2ccccc2)[n+]1-c1ccccc1`, the activity change, negative = inhibition was inconclusive: 10.2%.
For `CCOc1ccc(NC(=O)CCC(=O)NNC(=O)c2ccco2)cc1`, the activity change, negative = inhibition was inconclusive: 4.99%.
With `CCCCOc1ccc(-c2c(C#N)c(N)[nH]c(=S)c2C#N)cc1` the activity change, negative = inhibition was inconclusive: -9.35%.
For `COc1ccccc1C(=O)Nc1ccc(S(=O)(=O)N2CCOCC2)cc1`, the activity change, negative = inhibition was inconclusive: 7.61%.
For `NC(=O)c1ccc(N2CCCCC2)c(N2C(=O)CCC2=O)c1`, the activity change, negative = inhibition was inconclusive: 6.31%.
In the case of `CC(=O)N1CCN(S(=O)(=O)c2ccc3c(c2)CC(=O)N3)CC1`, the activity change, negative = inhibition is reported as inconclusive: 0.201%.
In the case of `COc1ccc(C(CC(=O)c2ccccc2)C2CCCCC2=O)cc1` (centres undefined), the activity change, negative = inhibition is reported as inconclusive: 20.1%.
For `COc1cccc(/C=C/c2nc(S(=O)(=O)c3ccccc3)c(N(C)C)o2)c1`, the activity change, negative = inhibition was “inactive”.
With `O=C(Nc1ccc(OCc2ccccc2)cc1)c1cccnc1` the activity change, negative = inhibition was inconclusive: 25.4%.
For `CC(C)(C)c1csc(NNC(=O)c2ccc(Br)cc2)n1`, the Potency was inconclusive: 35.5 µM [falling, partial curve, poor fit].
For `CC[C@]12c3[nH]c4cc(CCC(=O)N(C)C)ccc4c3CCN1C(=O)[C@@H](CC(=O)NCCCOC)C[C@@H]2C(=O)N1CCN(C(=O)c2ccco2)CC1`, the activity change, negative = inhibition was inconclusive: -0.595%.
For `CCCNc1c(NS(=O)(=O)c2ccc(NC(=O)CC)cc2)c(=O)oc2ccccc12`, the Potency was inconclusive: 11.2 µM [falling, partial curve].
In the case of `COc1cc(NC(=O)c2ccnnc2)cc(C(=O)Nc2cccc(C(F)(F)F)c2)c1`, the Potency is reported as inconclusive: 17.8 µM [falling, single point].
With `Cc1ccc(NC(=O)Nc2cccc3ccccc23)cc1` the activity change, negative = inhibition was inconclusive: -33.5%.
For `CCn1c(/C=C/c2ccccc2C)nc2ccccc2c1=O`, the Potency was inconclusive: 11.2 µM [falling, partial curve, poor fit].
With `Cc1cc(NCc2ccccn2)nc2ccccc12` the Potency was inconclusive: 29.1 µM [falling, single point].
With `NS(=O)(=O)c1ccc(Nc2nc(-c3ccc4ccccc4c3)cs2)cc1` the activity change, negative = inhibition was inconclusive: 14.8%.
With `COc1ccccc1N1CCN(C(=O)C2CCN(S(=O)(=O)c3ccc4c(c3)CC(C)N4C(=O)C3CC3)CC2)CC1` (centres undefined) the activity change, negative = inhibition was inconclusive: -2.61%.
In the case of `O=C(O)c1cccc(CSc2nnc(-c3ccc(Cl)cc3)o2)c1`, the activity change, negative = inhibition is reported as inconclusive: -1.85%.
With `COc1ccc(Nc2sc(C(=O)Nc3cccc(Cl)c3)c(N)c2C(=O)Nc2ccccc2OC)cc1` the Potency was inconclusive: 18.4 µM [rising, partial curve, poor fit].
For `COc1ccc(OCCNC(=O)CCCO)cc1`, the activity change, negative = inhibition was “inactive”.
For `Cn1ccnc1C(O)c1cc(C(C)(C)C)c(O)c(C(C)(C)C)c1` (centres undefined), the activity change, negative = inhibition was inconclusive: 0.334%.
With `CC(=O)c1cc2c(cc1NC(=O)Cn1nc(-c3ccc(C)cc3)ccc1=O)OCO2` the activity change, negative = inhibition was inconclusive: 6.47%.
In the case of `CCCCNc1ncnc2c1cnn2-c1ccc(C)cc1C`, the activity change, negative = inhibition is reported as inconclusive: 2.3%.
For `CCn1c(=N)n(CC(O)COc2ccccc2)c2ccccc21` (centres undefined), the activity change, negative = inhibition was “inactive”.
With `CCN(CC(=O)Nc1ccc(NC(C)=O)cc1)C(=O)C1CCCC1` the activity change, negative = inhibition was “inactive”.
With `CCN(CC)Cc1c(O)ccc2occ(C(=O)c3ccccc3)c12` the activity change, negative = inhibition was inconclusive: -14.9%.
In the case of `CCn1nc(C)cc1C(=O)N1CCCC(C(=O)c2ccccc2SC)C1` (centres undefined), the activity change, negative = inhibition is reported as “inactive”.
In the case of `CCOC(=O)c1[nH]c2ccc(OC)cc2c1NC(=O)CN1CCC2(CC1)OCCO2`, the Potency is reported as inconclusive: 20.6 µM [falling, single point].
With `CCc1nnc(N/N=C\c2ccc(OC(C)=O)c(OC)c2)n1N` the activity change, negative = inhibition was “inactive”.
With `N/C(=N\NC(=O)c1cccs1)c1cc2ccccc2oc1=O` the Potency was inconclusive: 29.1 µM [falling, single point].
